This note sets out measurements from article doi:10.1101/2025.02.04.636234.

Protein sequences, listed by entry. Tags and fused reporters are not part of them.
UniProt F4KGY6: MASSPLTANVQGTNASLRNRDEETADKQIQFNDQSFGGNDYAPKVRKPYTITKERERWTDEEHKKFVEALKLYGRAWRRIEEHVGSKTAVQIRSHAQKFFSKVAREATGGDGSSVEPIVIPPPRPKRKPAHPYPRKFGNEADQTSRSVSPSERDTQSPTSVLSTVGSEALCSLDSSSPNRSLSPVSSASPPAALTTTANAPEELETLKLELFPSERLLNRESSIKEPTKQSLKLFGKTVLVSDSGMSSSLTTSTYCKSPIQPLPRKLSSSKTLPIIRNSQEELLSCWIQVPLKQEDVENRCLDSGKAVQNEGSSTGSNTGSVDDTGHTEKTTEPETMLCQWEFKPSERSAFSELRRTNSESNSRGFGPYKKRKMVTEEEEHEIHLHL

The target of assay [1] is T1, … TESTA GLABRA 1 (GAL4-BD fusion) (Arabidopsis thaliana (Col-0 cDNA)) (UniProt Q9XGN1).
T1 sequence: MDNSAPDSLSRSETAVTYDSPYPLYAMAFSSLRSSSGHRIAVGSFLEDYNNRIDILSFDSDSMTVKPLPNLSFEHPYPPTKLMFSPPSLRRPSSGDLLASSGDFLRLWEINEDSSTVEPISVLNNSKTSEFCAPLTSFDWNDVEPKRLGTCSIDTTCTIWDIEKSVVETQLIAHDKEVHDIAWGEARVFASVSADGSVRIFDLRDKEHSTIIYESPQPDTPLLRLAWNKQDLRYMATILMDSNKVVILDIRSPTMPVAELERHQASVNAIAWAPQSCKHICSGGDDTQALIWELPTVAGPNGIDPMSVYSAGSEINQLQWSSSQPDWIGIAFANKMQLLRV
In words: two-hybrid.

Assay [2] has as its target T1, … TESTA GLABRA 1 (GAL4-BD fusion) (Arabidopsis thaliana (Col-0 cDNA)). Nature of the assay: two-hybrid. This is another data set of the same source.

Like-named read-outs stand apart in the source and are kept apart here. These are yes or no findings as the source states them, for the method shown. Some entries that bind do so weakly or less than the wild type. Where a sequence is shown, tags or fusion partners need not be part of it.

Consider “RVE1 (two-hybrid prey fusion) (from UniProt F4KGY6 1-387)”, for which the binding result in assay [1] was “binds”.

B1: REVEILLE8 (two-hybrid prey fusion) (protein, UniProt Q8RWU3 1-298)
chain: MSSSPSRNPTNAEAPPPPPTSTDAVAEGSSKKVRKPYTITKSRESWTEEEHDKFLEALQLFDRDWKKIEDFVGSKTVIQIRSHAQKYFLKVQKNGTLAHVPPPRPKRKAAHPYPQKASKNAQMPLQVSTSFTTTRNGDMPGYASWDDASMLLNRVISPQHELATLRGAEADIGSKGLLNVSSPSTSGMGSSSRTVSGSEIVRKAKQPPVLHGVPDFAEVYNFIGSVFDPETRGHVEKLKEMDPINFETVLLLMRNLTVNLSNPDLESTRKVLLSYDNVTTELPSVVSLVKNSTSDKSA
Regarding B1, the binding entry in assay [2] is reported as “no binding”.

B2: LATE ELONGATED HYPOCOTYL (two-hybrid prey fusion) (protein, UniProt Q6R0H1 1-645)
chain: MDTNTSGEELLAKARKPYTITKQRERWTEDEHERFLEALRLYGRAWQRIEEHIGTKTAVQIRSHAQKFFTKLEKEAEVKGIPVCQALDIEIPPPRPKRKPNTPYPRKPGNNGTSSSQVSSAKDAKLVSSASSSQLNQAFLDLEKMPFSEKTSTGKENQDENCSGVSTVNKYPLPTKQVSGDIETSKTSTVDNAVQDVPKKNKDKDGNDGTTVHSMQNYPWHFHADIVNGNIAKCPQNHPSGMVSQDFMFHPMREETHGHANLQATTASATTTASHQAFPACHSQDDYRSFLQISSTFSNLIMSTLLQNPAAHAAATFAASVWPYASVGNSGDSSTPMSSSPPSITAIAAATVAAATAWWASHGLLPVCAPAPITCVPFSTVAVPTPAMTEMDTVENTQPFEKQNTALQDQNLASKSPASSSDDSDETGVTKLNADSKTNDDKIEEVVVTAAVHDSNTAQKKNLVDRSSCGSNTPSGSDAETDALDKMEKDKEDVKETDENQPDVIELNNRKIKMRDNNSNNNATTDSWKEVSEEGRIAFQALFARERLPQSFSPPQVAENVNRKQSDTSMPLAPNFKSQDSCAADQEGVVMIGVGTCKSLKTRQTGFKPYKRCSMEVKESQVGNINNQSDEKVCKRLRLEGEAST
On to B2, for which the binding result in assay [2] was “binds”.

B3: PSEUDO RESPONSE REGULATOR 9 (two-hybrid prey fusion) (protein, UniProt Q8L500 1-468)
chain: MGEIVVLSSDDGMETIKNRVKSSEVVQWEKYLPKTVLRVLLVESDYSTRQIITALLRKCCYKVVAVSDGLAAWEVLKEKSHNIDLILTELDLPSISGFALLALVMEHEACKNIPVIMMSSQDSIKMVLKCMLRGAADYLIKPMRKNELKNLWQHVWRRLTLRDDPTAHAQSLPASQHNLEDTDETCEDSRYHSDQGSGAQAINYNGHNKLMENGKSVDERDEFKETFDVTMDLIGGIDKRPDSIYKDKSRDECVGPELGLSLKRSCSVSFENQDESKHQKLSLSDASAFSRFEESKSAEKAVVALEESTSGEPKTPTESHEKLRKVTSDQGSATTSSNQENIGSSSVSFRNQVLQSTVTNQKQDSPIPVESNREKAASKEVEAGSQSTNEGIAGQSSSTEKPKEEESAKQRWSRSQREAALMKFRLKRKDRCFDKKVRYQSRKKLAEQRPRVKGQFVRTVNSDASTKS
Regarding B3, the binding entry in assay [2] is listed as “binds”.
